Laboratory results as given in patent US20250136711A1 (SHANGHAI BIOTROY BIOTECHNIQUE, published 2025).
These are yes or no findings as the source states them, for the method shown. Some entries that bind do so weakly or less than the wild type. For some assays here: Tags and fused reporters may be left off the sequences shown.

Protein sequences, listed by entry. Tags and fused reporters are not part of them. Residues count along the entry.
UniProt Q8NHJ6, residues 22-259: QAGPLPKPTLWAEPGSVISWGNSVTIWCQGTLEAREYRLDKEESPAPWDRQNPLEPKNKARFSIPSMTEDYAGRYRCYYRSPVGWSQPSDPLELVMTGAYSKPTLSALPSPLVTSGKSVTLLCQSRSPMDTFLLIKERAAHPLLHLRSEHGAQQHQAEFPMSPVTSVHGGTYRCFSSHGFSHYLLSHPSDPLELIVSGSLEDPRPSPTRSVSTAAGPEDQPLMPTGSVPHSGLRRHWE
UniProt Q8N423, residues 22-460: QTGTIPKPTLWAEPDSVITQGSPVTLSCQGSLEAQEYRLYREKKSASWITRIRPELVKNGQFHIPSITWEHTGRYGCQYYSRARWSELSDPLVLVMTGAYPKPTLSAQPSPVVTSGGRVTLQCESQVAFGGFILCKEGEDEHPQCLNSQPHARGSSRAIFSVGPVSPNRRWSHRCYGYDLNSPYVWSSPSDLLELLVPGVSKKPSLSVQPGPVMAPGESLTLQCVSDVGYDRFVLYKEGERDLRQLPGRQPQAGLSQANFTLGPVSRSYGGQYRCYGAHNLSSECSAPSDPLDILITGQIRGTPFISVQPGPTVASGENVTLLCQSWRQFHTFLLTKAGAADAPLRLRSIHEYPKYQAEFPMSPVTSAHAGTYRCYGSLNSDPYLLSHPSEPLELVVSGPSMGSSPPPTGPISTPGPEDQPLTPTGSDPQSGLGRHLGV
UniProt P04279, residues 24-462: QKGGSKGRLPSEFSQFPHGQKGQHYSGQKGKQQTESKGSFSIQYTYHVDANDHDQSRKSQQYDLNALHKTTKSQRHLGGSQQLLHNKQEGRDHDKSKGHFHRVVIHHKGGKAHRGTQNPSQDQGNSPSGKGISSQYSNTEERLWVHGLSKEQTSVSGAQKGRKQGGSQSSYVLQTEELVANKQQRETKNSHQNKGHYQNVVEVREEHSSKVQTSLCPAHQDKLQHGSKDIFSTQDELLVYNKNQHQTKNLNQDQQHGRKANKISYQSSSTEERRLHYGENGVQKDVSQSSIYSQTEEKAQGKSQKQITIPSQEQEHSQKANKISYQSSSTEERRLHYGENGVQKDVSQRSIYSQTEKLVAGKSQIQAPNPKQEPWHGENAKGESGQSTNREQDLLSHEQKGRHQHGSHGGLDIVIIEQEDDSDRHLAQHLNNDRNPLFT

Columns and labels:
[1] = target: LILRB4 extracellular region protein fragment labeled with an hFc tag (UniProt Q8NHJ6); assay: ELISA; SEMG1 coated at 10, 3.3, 1.1 ug/mL, LILRB4-hFc at 2 ug/mL, anti-human Fc HRP
[2] = target: T1, CD27 extracellular region protein fragment labeled with an hFc tag (UniProt P26842); assay: ELISA; SEMG1 coated at 10, 3.3, 1.1 ug/mL, CD27-hFc at 2 ug/mL, anti-human Fc HRP
T1 sequence (looked up): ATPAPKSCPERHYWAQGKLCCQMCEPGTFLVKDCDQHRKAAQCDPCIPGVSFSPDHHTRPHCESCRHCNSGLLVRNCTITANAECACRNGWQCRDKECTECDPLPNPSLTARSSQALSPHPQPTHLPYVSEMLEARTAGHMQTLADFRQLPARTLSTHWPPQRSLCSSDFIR

[3] = target: LILRB2 extracellular region protein fragment labeled with an hFc tag (UniProt Q8N423); assay: ELISA; SEMG1 expressed in E. coli
[4] = target: LILRB2 extracellular region protein fragment labeled with an hFc tag (UniProt Q8N423); assay: ELISA; SEMG1 coated at 10, 3.3, 1.1 ug/mL, LILRB2-hFc at 2 ug/mL, anti-human Fc HRP
[5] = target: LILRB4 extracellular region protein fragment labeled with an hFc tag (UniProt Q8NHJ6); assay: ELISA; SEMG1 coated, receptor-hFc in solution
[6] = target: LILRB2 extracellular region protein fragment labeled with an hFc tag (UniProt Q8N423); assay: ELISA; SEMG1 coated, receptor-hFc in solution
[7] = target: LILRB4 extracellular region protein fragment labeled with an hFc tag (UniProt Q8NHJ6); assay: ELISA; SEMG2 coated, receptor-hFc in solution
[8] = target: LILRB2 extracellular region protein fragment labeled with an hFc tag (UniProt Q8N423); assay: ELISA; SEMG2 coated, receptor-hFc in solution
[9] = target: LILRB2 extracellular region protein fragment labeled with an hFc tag (UniProt Q8N423); assay: ELISA; SEMG2 coated at 10, 3.3, 1.1 ug/mL, LILRB2-hFc at 2 ug/mL, anti-human Fc HRP
[10] = target: T1, CD27 extracellular region protein fragment labeled with an hFc tag; assay: ELISA; SEMG2 coated at 10, 3.3, 1.1 ug/mL, CD27-hFc at 2 ug/mL, anti-human Fc HRP
[11] = target: LILRB4 extracellular region protein fragment labeled with an hFc tag (UniProt Q8NHJ6); assay: ELISA; SEMG2 coated at 10, 3.3, 1.1 ug/mL, LILRB4-hFc at 2 ug/mL, anti-human Fc HRP

Measured: binding

SEMG1 recombinant protein (semenogelin-1) (from UniProt P04279 24-462) (ligand)
binds: [1] | [2] | [3] | [4] | [5] | [6]

B1: SEMG2 recombinant protein (semenogelin-2) (ligand, human, UniProt Q02383 24-582, looked up)
chain: QKGGSKGQLPSGSSQFPHGQKGQHYFGQKDQQHTKSKGSFSIQHTYHVDINDHDWTRKSQQYDLNALHKATKSKQHLGGSQQLLNYKQEGRDHDKSKGHFHMIVIHHKGGQAHHGTQNPSQDQGNSPSGKGLSSQCSNTEKRLWVHGLSKEQASASGAQKGRTQGGSQSSYVLQTEELVVNKQQRETKNSHQNKGHYQNVVDVREEHSSKLQTSLHPAHQDRLQHGPKDIFTTQDELLVYNKNQHQTKNLSQDQEHGRKAHKISYPSSRTEERQLHHGEKSVQKDVSKGSISIQTEEKIHGKSQNQVTIHSQDQEHGHKENKISYQSSSTEERHLNCGEKGIQKGVSKGSISIQTEEQIHGKSQNQVRIPSQAQEYGHKENKISYQSSSTEERRLNSGEKDVQKGVSKGSISIQTEEKIHGKSQNQVTIPSQDQEHGHKENKMSYQSSSTEERRLNYGGKSTQKDVSQSSISFQIEKLVEGKSQIQTPNPNQDQWSGQNAKGKSGQSADSKQDLLSHEQKGRYKQESSESHNIVITEHEVAQDDHLTQQYNEDRNPIST
binds: [7] | [8] | [9] | [10] | [11]
